Test results from publication PMC9640553.

Biological target: ΔIMS-ATAD3-HA
Assay: co-IP; steady state; 500 µg total protein extract in IP buffer (HEPES KOH pH 7.2, 150 mM NaCl, 1 mM MgCl2, 1% Triton), anti-V5, anti-VPS35 or anti-HA overnight at 4 °C, Protein-G agarose, western blot

binding: binds
B1: SAMM50 (protein, UniProt Q8BGH2 1-469)
chain: MGTVHARSLEPLPSSGTDFGALGEEAEFVEVEPEAKQEILENKDVVVQHVHFDGLGRTKDDIIICEIGEVFKAKNLIEVMRRSHEAREKLLRLGIFRQVDVLIDTCHGEDALPNGLDVTFEVTELRRLTGSYNTMVGNNEGSMVLGLKLPNLLGRAEKVTFQFSYGTKETSYGLSFFKPQPGNFERNFSVNLYKVTGQFPWSSLRETDRGVSAEYSFPLWKTSHTVKWEGVWRELGCLSRTASFAVRKESGHSLKSSLSHAMVIDSRNSSILPRRGALFKVNQELAGYTGGDVSFIKEDFELQLNKPLALDSVFSTSLWGGMLVPIGDKPSSIADRFYLGGPTSVRGFSMHSIGPQSEGDYLGGEAYWAGGLHLYTPLPFRPGQGGFGELFRTHFFLNAGNLCNLNYGEGPKAHIRKLAECIRWSYGAGVVLRLGNIARLELNYCIPMGVQGGDRICDGVQFGAGIRFL

Results are given in words; binding and its absence hold for the method and conditions named. In cells and extracts the contact can be indirect. A result given as binding can be weak or reduced; the word gives no strength.
